Results as given in paper PMC10759634.

Sequences of proteins named here, by UniProt entry; tags and fusion partners are left off. A change or cut given only in a name is not applied to a line headed by its entry. A line that says so, or that is headed by a name, gives the form on record, which may keep a tag or linker.
Myc-G9a WT (Q9Z148-2, form named): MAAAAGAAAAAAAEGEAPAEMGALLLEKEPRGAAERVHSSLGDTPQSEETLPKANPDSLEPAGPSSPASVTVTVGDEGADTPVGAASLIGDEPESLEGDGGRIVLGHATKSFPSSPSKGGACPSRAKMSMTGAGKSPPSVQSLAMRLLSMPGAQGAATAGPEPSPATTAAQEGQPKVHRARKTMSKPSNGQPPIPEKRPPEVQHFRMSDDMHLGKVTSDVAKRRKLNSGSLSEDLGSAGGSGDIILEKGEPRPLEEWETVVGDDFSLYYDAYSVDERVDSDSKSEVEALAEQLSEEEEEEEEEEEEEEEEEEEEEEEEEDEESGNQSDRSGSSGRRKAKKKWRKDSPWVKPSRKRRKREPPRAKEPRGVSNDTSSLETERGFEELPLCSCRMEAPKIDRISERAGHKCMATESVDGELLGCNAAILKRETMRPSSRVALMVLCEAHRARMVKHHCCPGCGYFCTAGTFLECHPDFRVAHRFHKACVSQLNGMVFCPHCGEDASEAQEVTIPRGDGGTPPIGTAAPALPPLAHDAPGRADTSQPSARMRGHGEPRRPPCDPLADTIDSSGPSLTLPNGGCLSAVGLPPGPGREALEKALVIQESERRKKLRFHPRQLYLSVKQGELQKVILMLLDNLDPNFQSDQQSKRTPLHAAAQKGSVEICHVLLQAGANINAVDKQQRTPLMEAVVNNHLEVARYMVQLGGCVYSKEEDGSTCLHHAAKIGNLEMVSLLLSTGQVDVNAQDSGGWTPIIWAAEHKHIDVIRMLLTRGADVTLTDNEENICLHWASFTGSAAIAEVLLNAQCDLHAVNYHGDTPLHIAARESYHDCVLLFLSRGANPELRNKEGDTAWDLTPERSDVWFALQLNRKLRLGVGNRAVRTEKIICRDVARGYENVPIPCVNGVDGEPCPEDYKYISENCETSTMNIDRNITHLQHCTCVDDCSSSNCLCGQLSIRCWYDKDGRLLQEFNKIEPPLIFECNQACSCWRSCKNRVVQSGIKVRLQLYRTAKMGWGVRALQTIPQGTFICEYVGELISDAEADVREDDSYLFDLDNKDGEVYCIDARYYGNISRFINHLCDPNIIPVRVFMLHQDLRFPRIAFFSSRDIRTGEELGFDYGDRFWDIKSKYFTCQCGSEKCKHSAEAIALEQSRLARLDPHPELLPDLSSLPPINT

How the values were obtained:
Flag-mPrdm12 WT (mouse) = biological target: T1, Flag-mPrdm12 WT (mouse) (UniProt A2AJ77); test: co-IP; HEK293T cells co-transfected; lysis in IPH buffer (150 mM NaCl, 5 mM EDTA pH 8.0, 50 mM Tris pH 8.0, 1% NP-40); immunoprecipitation with anti-Flag antibodies overnight at 4°C, Protein A Sepharose; western blot with anti-Flag or anti-Myc
T1 sequence: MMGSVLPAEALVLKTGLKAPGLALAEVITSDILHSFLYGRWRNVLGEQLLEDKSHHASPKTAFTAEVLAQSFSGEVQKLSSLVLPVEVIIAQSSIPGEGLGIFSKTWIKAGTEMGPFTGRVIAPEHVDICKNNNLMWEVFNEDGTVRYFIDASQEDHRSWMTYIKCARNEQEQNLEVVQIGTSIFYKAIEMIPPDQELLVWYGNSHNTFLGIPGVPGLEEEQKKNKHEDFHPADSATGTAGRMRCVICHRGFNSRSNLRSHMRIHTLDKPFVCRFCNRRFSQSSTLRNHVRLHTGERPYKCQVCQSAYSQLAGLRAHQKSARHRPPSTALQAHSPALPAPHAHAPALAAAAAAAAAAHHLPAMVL

[1] = biological target: Flag-mPrdm12 mutant lacking the ZF domain (mouse) (UniProt A2AJ77); test: as above

binding (Flag-mPrdm12 WT (mouse))	binding [1]	Substance
binds	–	MYC-G9a ΔANK
no binding	–	MYC-G9a ΔSET
–	no binding	Myc-G9a WT (from UniProt Q9Z148-2 1-1172)

These are yes or no findings as the source states them, for the method shown. In cells and extracts the contact can be indirect. For part of these data: Binding calls can cover weak binding; strength is not graded here. For part of these data: Sequences can lack the tags named with a protein.
